Source: PubChem BioAssay AID1508597 (Cure First, 2020)

- Purpose: 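Survival screen with siRNA in ovarian cancer cells derived from patients, with or without rucaparib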 (primary screen)
- Cells: human ovarian carcinoma lines grown from tumours: OCI-P5x (papillary serous) and OCI-C5x (clear cell)
- Reagents: siRNA pool against human genes, 1.25 pmol siRNA per well
- Timing: 72 h or 96 h, depending on the cell culture
- Challenge: rucaparib 20 µM (about IC30) or vehicle, present until read-out
- Rucaparib or vehicle: Vehicle
- Cell line: OCI-C5x (clear cell)
- Measurement: 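ATP luminescence measured at 72 or 96 h according to the culture, then normalised and expressed as percent viability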
- Direction: viability, normalised: higher = more viable cells remaining
- Call rule: 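a well counts as a hit if its normalised viability is under 80 percent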
- Meaning of the calls: active = viability under 80%; inactive = viability 80% or more
Shown is a random part of the about 2,100 reagents, in one setting of the screen. 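Calls flag viability under 80% in either arm, not effects specific to rucaparib; the reference for percent is not stated.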 Some reagents were tested in more than one well and are listed for each. Reagent sequences are not shown. Not stated in the record: the 100% reference.

| gene | technical replicate | viability, normalised (%) | Outcome |
| --- | --- | --- | --- |
| ZDHHC3 | 1 | 46.1 | active |
| ZDHHC3 | 2 | 38.3 | active |
| ZDHHC3 | 3 | 38.6 | active |
| NEK7 | 1 | 38.5 | active |
| NEK7 | 2 | 31.9 | active |
| NEK7 | 3 | 46.7 | active |
| PI4KA | 1 | 74.1 | active |
| PI4KA | 2 | 60.5 | active |
| PI4KA | 3 | 64.7 | active |

An excerpt from the list above, for reference:
| gene | technical replicate | viability, normalised (%) | Outcome |
| --- | --- | --- | --- |
| NEK7 | 3 | 46.7 | active |
| PI4KA | 1 | 74.1 | active |
| PI4KA | 2 | 60.5 | active |

The listing continues.
| gene | technical replicate | viability, normalised (%) | Outcome |
| --- | --- | --- | --- |
| TDRD5 | 1 | 53.7 | active |
| TDRD5 | 2 | 63.1 | active |
| TDRD5 | 3 | 61.9 | active |
| DCLRE1C | 1 | 45.2 | active |
| DCLRE1C | 1 | 17 | active |
| DCLRE1C | 2 | 56.3 | active |
| DCLRE1C | 2 | 16 | active |
| DCLRE1C | 3 | 18.4 | active |
| DCLRE1C | 3 | 40.4 | active |
| HMGN5 | 1 | 52.5 | active |
| HMGN5 | 2 | 77.7 | active |
| HMGN5 | 3 | 65.4 | active |
| MLLT1 | 1 | 63.2 | active |
| MLLT1 | 2 | 59.7 | active |
| MLLT1 | 3 | 55.7 | active |
